The target of experiment [1] is Tetrahymena thermophila Arl3-Q70L (2×Strep, Sf9) (T. thermophila). The experiment is described as follows: affinity purification with mass spectrometry; Strep pulldown with recombinant Arl3-Q70L as bait from lysates of Tetrahymena cells undergoing ciliary regeneration after deciliation; eluates by MS and silver-stained gel; only the target purified.
For experiment [2], the target named is DNAAF9 (endogenous, human airway epithelial cells) (human (endogenous in HAECs)) (UniProt Q5TEA3). Put plainly: affinity purification with mass spectrometry; endogenous DNAAF9 immunoprecipitated from HAEC whole-cell lysates at ALI day 19 (ECs) and day 45 (MCs), anti-DNAAF9 against isotype-matched IgG, protein A/G beads, TMT labeling and MS.

By UniProt entry, the sequences of proteins in these tests, tags left out.
UniProt Q5TEA3: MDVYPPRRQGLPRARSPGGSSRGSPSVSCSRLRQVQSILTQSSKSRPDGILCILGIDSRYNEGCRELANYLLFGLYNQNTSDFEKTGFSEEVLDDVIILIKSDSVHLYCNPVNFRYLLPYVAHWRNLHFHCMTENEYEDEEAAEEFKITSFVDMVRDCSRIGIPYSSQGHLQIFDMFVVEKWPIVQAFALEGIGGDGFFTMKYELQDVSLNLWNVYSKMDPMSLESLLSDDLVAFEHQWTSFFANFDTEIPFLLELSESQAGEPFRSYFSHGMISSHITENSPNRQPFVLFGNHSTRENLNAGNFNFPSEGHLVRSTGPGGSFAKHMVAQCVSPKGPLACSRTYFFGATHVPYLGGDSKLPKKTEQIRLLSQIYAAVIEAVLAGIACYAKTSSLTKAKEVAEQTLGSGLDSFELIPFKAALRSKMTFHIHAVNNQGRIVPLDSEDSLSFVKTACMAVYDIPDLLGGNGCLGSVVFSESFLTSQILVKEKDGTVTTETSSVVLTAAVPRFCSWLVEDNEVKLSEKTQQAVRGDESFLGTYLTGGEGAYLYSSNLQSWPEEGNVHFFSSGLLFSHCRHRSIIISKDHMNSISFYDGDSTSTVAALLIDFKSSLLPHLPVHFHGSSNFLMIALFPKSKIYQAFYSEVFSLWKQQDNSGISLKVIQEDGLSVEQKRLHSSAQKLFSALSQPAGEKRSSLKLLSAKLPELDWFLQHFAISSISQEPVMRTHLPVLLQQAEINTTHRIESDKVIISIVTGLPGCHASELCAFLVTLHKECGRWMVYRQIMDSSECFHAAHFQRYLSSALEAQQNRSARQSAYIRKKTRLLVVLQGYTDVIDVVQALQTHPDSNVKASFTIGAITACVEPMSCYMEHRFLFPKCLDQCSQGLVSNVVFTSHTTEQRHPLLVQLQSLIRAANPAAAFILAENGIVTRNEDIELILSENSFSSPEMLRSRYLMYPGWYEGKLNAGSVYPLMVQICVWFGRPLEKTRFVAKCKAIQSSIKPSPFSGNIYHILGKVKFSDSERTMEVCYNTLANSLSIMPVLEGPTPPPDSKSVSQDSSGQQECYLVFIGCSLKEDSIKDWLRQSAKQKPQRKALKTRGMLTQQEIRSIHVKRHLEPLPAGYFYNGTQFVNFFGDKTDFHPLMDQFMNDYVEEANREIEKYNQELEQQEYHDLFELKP

No constants are given. Whether binding was seen depends on the method and setting. Binding seen in cells or lysates may run through a third protein. These calls come from enrichment with a bait or labelling near it, and not all partners need be listed.

The source of these data is paper PMC12700831.

B1: endogenous Tetrahymena Shulin (protein, UniProt Q22YU3 1-1200)
chain: MFNFFSSANINQNIPKYSVNDFVFRLKKIEKIVVKEGLDGFLLINGVDSRENTEYVKLTNWLFLGNSGLEIEENEYLNQIYSDMIVLIKKGTTHIFIDPEALNSLQTLIYSIPNVDVFCPTEKQYEDKDEMELLKMAFFLRVMKPTKKVGILLGQKDKGKINSIEKWPLIQSYGLEELGVGFFSMNHEVVDLTLRLNAVYKNYDKFFVSKLIYVVAKRLTGHFNSAAGQLGDMKMHKRNLATESQLTEIFRDTYEIEEISKWVQIRGVNAALPKPRVLFGKNTSADCSKEPSVAPLKDLKYSETFHSFHATFETFDLRTCLRAARTYFLAKGVKEERNLITLNDDEGVPQGYELNIDENQQYKDQDFLANLYLSIIIGFNEVMQLITKDYKNMTEEFIQDYIFQKVSKVYAGFQIPESEITLDKIQIILKAYNSFGEEVKIDFKDTISFKLTPYFFMVRIEQKNIKSQILNNTVLGSLVFAESFILQEGCYLLLTKEIPYFDLWNCQNDYSEKIEKMKKRILWEPLGKQISDELPKNRIFVQTGRKSNYGFDIPIMQASYYMHELGLRIETQRLGWFILFFKEMKEIQITQKMNHTWLIFKVDSNITFNSISKDTIALEFTGDALEQSFFKIKNYFEENQIKYEYQVDIPAIFQESQIAKKQILNQQSQGQKLITMNSIQNEQFFISYIESKQLMILNQMKDLKLSAYKNLYEQMQISQAITPVENHIGVILVNGSYCSGKRKFAENLIRFGSDNNLRLHLYKFDLNEMSELTEKSYLSGLLKFASEKKIQNTDVIVASVPHFINTKILIDYFSKSEKISNAFYIRTIATKININNIYSNFNKNPVNNVFTYGVEGYSQFLLLDTYNNYDADVNALNKTLSGVLPGAKIYKIMNNILNPALAKDILTSITFISEQNNLNRLKYSVQYDLLTSNGPSSVVFIPFKLPILREKIRDLIYKKILQNGNQTLVDTIEAEQKIAEFKELNKNSKDPLMIEIIKLKEKIEIQNAQTSDQAIKIDYVKGILRYDSKLKEGLEEITITPNYFIERTVKGVDAKEFTEELNGVSFKNVKYTGITNSIINDMGFVFAGKNLNKEKLLELLYKLVKPLNKQKLRQRKDLTEEEIVDIQFRNRGEGLENGEFYDGQFWRNIQGLILPHHPKKDEFIEEYLKQEEVRINQINEQLQQEWETWKQVYDKIHLDK
For the molecule B1, in experiment [1], the binding result was “binds”.

B2: LC3/NME9 (protein, UniProt Q86XW9 1-330)
chain: MGSRKKEIALQVNISTQELWEEMLSSKGLTVVDVYQGWCGPCKPVVSLFQKMRIEVGLDLLHFALAEADRLDVLEKYRGKCEPTFLFYAGGELVAVVRGANAPLLQKTILDQLEAEKKVLAEGRERKVIKDEALSDEDECVSHGKNNGEDEDMVSSERTCTLAIIKPDAVAHGKTDEIIMKIQEAGFEILTNEERTMTEAEVRLFYQHKAGEEAFEKLVHHMCSGPSHLLILTRTEGFEDVVTTWRTVMGPRDPNVARREQPESLRAQYGTEMPFNAVHGSRDREDADRELALLFPSLKFSDKDTEAPQGGEAEATAGPTEALCFPEDVD
Consider B2, for which the binding result in experiment [2] is recorded as “binds”.

B3: DNAI1 (protein, UniProt Q9UI46 1-699)
chain: MIPASAKAPHKQPHKQSISIGRGTRKRDEDSGTEVGEGTDEWAQSKATVRPPDQLELTDAELKEEFTRILTANNPHAPQNIVRYSFKEGTYKPIGFVNQLAVHYTQVGNLIPKDSDEGRRQHYRDELVAGSQESVKVISETGNLEEDEEPKELETEPGSQTDVPAAGAAEKVTEEELMTPKQPKERKLTNQFNFSERASQTYNNPVRDRECQTEPPPRTNFSATANQWEIYDAYVEELEKQEKTKEKEKAKTPVAKKSGKMAMRKLTSMESQTDDLIKLSQAAKIMERMVNQNTYDDIAQDFKYYDDAADEYRDQVGTLLPLWKFQNDKAKRLSVTALCWNPKYRDLFAVGYGSYDFMKQSRGMLLLYSLKNPSFPEYMFSSNSGVMCLDIHVDHPYLVAVGHYDGNVAIYNLKKPHSQPSFCSSAKSGKHSDPVWQVKWQKDDMDQNLNFFSVSSDGRIVSWTLVKRKLVHIDVIKLKVEGSTTEVPEGLQLHPVGCGTAFDFHKEIDYMFLVGTEEGKIYKCSKSYSSQFLDTYDAHNMSVDTVSWNPYHTKVFMSCSSDWTVKIWDHTIKTPMFIYDLNSAVGDVAWAPYSSTVFAAVTTDGKAHIFDLAINKYEAICNQPVAAKKNRLTHVQFNLIHPIIIVGDDRGHIISLKLSPNLRKMPKEKKGQEVQKGPAVEIAKLDKLLNLVREVKIKT
For B3, the binding result in experiment [2] was “binds”.
